Experimental data from patent publication US7169568B2, “Method for screening molecules that exert a neurotrophic effect through activation of neurotrophin receptors” (New York University, priority 2000, dated 2007).
At least one compound was matched to its structure with a doubt left.

Legend:
[1] = tested on: Akt; assay: Akt activation in PC12 cells (anti-phospho Akt immunoblot); assay type: cell-based; conditions: pretreatment 10 μM
Protocol: PC12 cells (615) were treated with adenosine (10 μM) for various times in the presence or absence of […] (100 nM) or LY294002 (10 μM). The cells were subsequently harvested in lysis buffer; lysates and immunoprecipitated samples were subsequently immunoblotted with anti-phospho MAP kinase, anti-phospho Akt, and anti-phosphotyrosine. Reprobing with anti-MAP kinase and anti-pan-Trk antibodies was carried out to ensure equal protein loading. To assess the activity of Akt, endogenous Akt can be immunoprecipitated from lysates with anti-Akt and the proteins assayed in Western blots with anti-phospho-Akt antibodies. Use of the anti-Akt antibody versus the anti-phospho-Akt antibody on lysates can give a comparative assessment of the relative level of the enzyme and extent of activation (Kim et al., 2001). […] and Immunoblotting. PC12 cells or PC12-615 cells (Hempstead et al, 1992), were maintained in Dulbecco's Modified Eagle's Medium (DMEM) containing 10% fetal bovine serum (FBS) supplemented with 100 units/ml penicillin, 100 μg/ml streptomycin, and 2 mM glutamine plus 200 μg/ml G418. Cells were placed in low serum medium (1% FBS, 0.5% horse serum) overnight prior to experiments. […] Equivalent amounts of protein were analyzed for each condition. […] The immunoreactive protein bands were detected by ECL reagents based upon enhanced chemiluminescence procedure (Amersham Pharmacia).

[2] = tested on: NGF-differentiated PC12 cells; assay: Cell death assay (LDH release), NGF-differentiated PC12 cells after NGF and serum withdrawal; assay type: cell-based; conditions: 10 μM, with CGS 21680 (10 nM)
Protocol: FIGS. 6A and 6B show graphs on the trophic effects of adenosine in PC12 and hippocampal cells deprived of neurotrophins. In FIG. 6A, NGF-differentiated PC12 cells were prepared and then NGF and serum were withdrawn for 48 hours as described in the Materials and Methods section of Example 1. Upon NGF withdrawal, various concentrations of CGS 21680 (CGS) were added to the media. CON =No Addition. […] In FIG. 6B, hippocampal neurons were prepared and B27 was withdrawn for 48 hrs as described in the Materials and Methods section of Example 1. Upon B27 withdrawal, various concentrations of CGS 21680 (CGS) were added to the media. […] All LDH levels were quantitated and % cell death calculated as described in the Materials and Methods section of Example 1. All bars depict mean+SEM from three independent experiments.
Cell Death Assay. PC12 cells were differentiated in Dulbecco's modified Eagle's medium (DMEM), supplemented with 0.33% fetal bovine serum, 0.67% heat-inactivated horse serum, 2 mM L-glutamine and NGF (50 ng/ml) for 7 days. Serum and NGF were then removed, and adenosine agonists or growth factors added to the media. After 48 hrs, cell death was quantified by measuring lactate dehydrogenase (LDH) released from injured cells into the media using the Cytox 96 Cytotoxicity Assay Kit (Promega, Madison, Wis.). […]

O=c1cc(N2CCOCC2)oc2c(-c3ccccc3)cccc12 [LY294002]
Effect on Akt activation by adenosine [1]: eliminated | Effect on trophic effect of CGS 21680 after NGF withdrawal [2]: eliminate the trophic effect of CGS 21680
